Test results reported in US20260262644A1, “Antifungal compositions comprising natamycin” (Patent Nata B.V., priority 2023, published 2026).
The name of at least one read-out is uncertain.

Tested on: Pythium ultimum
Assay: Mycelium growth on PDA petri dishes containing natamycin and/or solvent; synergy by Colby equation
Assay type: cell-based
Source text: The Colby equation (Colby, 1967. Weeds 15: 20-22) calculates the expected antifungal activity (E in %) of a combination comprising more than one active ingredients:
wherein X and Y are the observed antifungal activities (in %) of the individual active ingredients x and y, respectively. If the observed antifungal activity (O in %) of the combination exceeds the expected antifungal activity (E in %) of the combination and the synergy factor O/E is thus >1.0, the combined application of the active ingredients and solvent leads to a synergistic antifungal effect.
Agar medium was prepared by mixing in a 100 ml Duran bottle 3.9 g of potato dextrose agar (PDA; Carl-Roth GmbH+Co. KG, Karlsruhe, Germany) with 100 ml deionized water and autoclaving the Duran bottle at 120° C. for 15 minutes. After autoclaving, the solution was cooled by putting it in a 50° C. oven for about two hours. Afterward the semi-liquid PDA solution was carefully mixed with natamycin and/or solvent dosages as specified in Table 2 (left column). The medium in the Duran bottle was divided over 5 petri dishes (90×15 mm), 20 ml per petri dish by using 25 ml serological pipets (ROTILABO®; Carl-Roth). Each natamycin and/or solvent treatment was performed in five fold.
Hereafter, a circular agar mycelium plug (circular segment with a height on 5 mm of agar, fully grown with fresh Pythium ultimum mycelium, which was cut out of a petri dish with the broad side of a yellow pipette tip (Greiner Bio-One, 200 μl tips) with a diameter of 5 mm, was placed in the center of the petri dish. Hereafter the petri dishes were placed in the incubator at 22° C. Measurement of the fungal growth was done using caliper.
The solvent levels and the period after which the assessments were made are presented as specified for the different solvents are presented in Table 2 below. Synergistic calculation was done using the Colby equation. Experiment was performed in 5-fold.

[1] = natamycin-solvent 0-25 ppm, 2 days after plug
[2] = natamycin-solvent 0-250 ppm, 2 days after plug
[3] = natamycin-solvent 0-12.5 ppm, 1 day after plug
[4] = natamycin-solvent 0-25 ppm, 1 day after plug
[5] = natamycin-solvent 0-250 ppm, 1 day after plug

SMILES | Avg infected area [1] [mm^2] | Observed % [1] [%] | Avg infected area [2] [mm^2] | Observed % [2] [%] | Avg infected area [3] [mm^2] | Observed % [3] [%] | Avg infected area [4] [mm^2] | Observed % [4] [%] | Avg infected area [5] [mm^2] | Observed % [5] [%]
C1COCCO1 [1,4-dioxane] | 2725.43 | 13.16 | 2753.9 | 12.25 | – | – | – | – | – | –
CN(C)C=O [DMF, dimethylformamide] | – | – | – | – | 1314.5 | 3.40 | 1306.7 | 3.98 | 1254.9 | 7.78
